Results are given in words; binding and its absence hold for the method and conditions named. In cells and extracts the contact can be indirect.
Molecular target: α7 nicotinic acetylcholine receptor (mouse (endogenous in EOC20)) (UniProt P49582)
Assay: co-IP; α7 nAChR complex precipitated from 500 μg EOC20 cell membrane protein fraction with 5 μg anti-α7 C-20 antibody on Protein G Dynabeads; western blot with anti-Gαi, anti-Gαq, anti-Gαs and anti-Gβ; cells untreated or treated with LPS (1 μg/mL, 4 h); cells untransfected, or transfected with α7_(345-8A) or empty vector 72 h before

Sequences of proteins named here, by UniProt entry; tags and fusion partners are left off. Residues count along the entry.
UniProt P49582, residues 23-502: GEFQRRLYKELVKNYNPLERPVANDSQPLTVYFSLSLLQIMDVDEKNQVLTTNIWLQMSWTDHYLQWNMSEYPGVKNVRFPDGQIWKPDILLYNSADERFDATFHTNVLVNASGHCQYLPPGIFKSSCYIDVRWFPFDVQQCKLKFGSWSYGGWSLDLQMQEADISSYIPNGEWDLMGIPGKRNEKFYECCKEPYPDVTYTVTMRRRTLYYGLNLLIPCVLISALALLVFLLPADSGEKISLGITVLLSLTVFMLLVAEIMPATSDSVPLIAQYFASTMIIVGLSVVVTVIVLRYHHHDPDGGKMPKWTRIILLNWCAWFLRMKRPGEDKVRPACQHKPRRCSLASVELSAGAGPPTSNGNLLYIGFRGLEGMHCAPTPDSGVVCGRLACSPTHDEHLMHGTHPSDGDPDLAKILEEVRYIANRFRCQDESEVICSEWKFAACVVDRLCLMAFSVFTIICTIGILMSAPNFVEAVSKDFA
UniProt P63094: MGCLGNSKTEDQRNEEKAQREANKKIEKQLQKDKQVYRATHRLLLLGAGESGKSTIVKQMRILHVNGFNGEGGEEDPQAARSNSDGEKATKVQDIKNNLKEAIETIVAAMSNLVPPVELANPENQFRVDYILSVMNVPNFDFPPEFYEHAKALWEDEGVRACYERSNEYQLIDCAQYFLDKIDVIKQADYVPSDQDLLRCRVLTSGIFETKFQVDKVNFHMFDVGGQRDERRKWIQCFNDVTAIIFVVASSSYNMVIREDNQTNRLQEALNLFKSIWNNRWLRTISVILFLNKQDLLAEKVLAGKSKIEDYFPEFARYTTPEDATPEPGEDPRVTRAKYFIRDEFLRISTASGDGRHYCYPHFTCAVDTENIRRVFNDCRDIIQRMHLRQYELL

For “heterotrimeric G protein subunit Gαs (from UniProt P63094 1-394)”, the binding was “no binding”.
